PMC10692919
No constants are given. Whether binding was seen depends on the method and setting. Tags and fused reporters may be left off the sequences shown.

Chains of the proteins cited; added tags and fusions are not shown. Residues count along the entry.
UniProt P22004, residues 375-513: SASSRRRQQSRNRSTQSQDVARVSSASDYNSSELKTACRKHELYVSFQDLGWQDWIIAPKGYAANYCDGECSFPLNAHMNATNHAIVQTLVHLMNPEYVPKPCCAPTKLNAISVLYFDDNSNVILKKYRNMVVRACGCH

Experiments:
Test in all cases: SPR; Biacore T200, CM5 chip; BMP2, BMP6 or BMP2/6 immobilised by amine coupling (50 μg/ml); FLAG-ERFE variants made in HEK293T as analyte; HBS-EP (0.15 M NaCl, 3 mM EDTA, 0.005% P20, 0.01 M Hepes pH 7.4), 50 μl/min; KD = koff/kon at five concentrations; the paper calls the constants avidities where binding is presumed multivalent; only the target purified
BMP2 homodimer = biological target: T1, BMP2 homodimer (UniProt P12643)
T1 sequence: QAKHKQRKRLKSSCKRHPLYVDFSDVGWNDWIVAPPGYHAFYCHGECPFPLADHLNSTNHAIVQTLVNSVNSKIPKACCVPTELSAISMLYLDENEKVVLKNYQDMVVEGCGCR

BMP2/6 heterodimer = BMP2/6 heterodimer (UniProt P12643)
BMP6 homodimer = BMP6 homodimer (UniProt P22004)

- binding (BMP2 homodimer): no binding
- binding (BMP2/6 heterodimer): no binding
- binding (BMP6 homodimer): no binding
B1: ERFE C terminus (globular head), 186-354, FLAG-tagged (domain or fragment, UniProt Q4G0M1 186-354)
chain: LALLAAPLAPGPRAPRVEAAFLCRLRRDALVERRALHELGVYYLPDAEGAFRRGPGLNLTSGQYRAPVAGFYALAATLHVALGEPPRRGPPRPRDHLRLLICIQSRCQRNASLEAIMGLESSSELFTISVNGVLYLQMGQWTSVFLDNASGCSLTVRSGSHFSAVLLGV
